# Data published in the supplement of paper PMC12819154, “High-throughput peptide-centric local stability assay extends protein–ligand identification to membrane proteins, tissues and bacteria” (Nature Structural & Molecular Biology, 2025).
# Chains of the proteins cited; added tags and fusions are not shown. Lines headed by an entry give the natural chain unless they say otherwise; changes in a name come on top.
# UniProt Q6ZNX1: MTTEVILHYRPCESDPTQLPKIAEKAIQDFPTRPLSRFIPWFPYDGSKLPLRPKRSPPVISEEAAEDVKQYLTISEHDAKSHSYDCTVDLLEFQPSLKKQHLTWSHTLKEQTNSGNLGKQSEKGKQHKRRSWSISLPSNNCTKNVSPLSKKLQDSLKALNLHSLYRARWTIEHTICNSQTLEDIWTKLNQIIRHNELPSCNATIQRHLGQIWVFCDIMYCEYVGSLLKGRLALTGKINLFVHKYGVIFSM
# UniProt Q86T23: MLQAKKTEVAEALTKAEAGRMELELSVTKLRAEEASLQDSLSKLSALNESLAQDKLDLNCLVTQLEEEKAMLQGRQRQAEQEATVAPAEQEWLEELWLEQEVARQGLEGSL
# UniProt Q7L1V2: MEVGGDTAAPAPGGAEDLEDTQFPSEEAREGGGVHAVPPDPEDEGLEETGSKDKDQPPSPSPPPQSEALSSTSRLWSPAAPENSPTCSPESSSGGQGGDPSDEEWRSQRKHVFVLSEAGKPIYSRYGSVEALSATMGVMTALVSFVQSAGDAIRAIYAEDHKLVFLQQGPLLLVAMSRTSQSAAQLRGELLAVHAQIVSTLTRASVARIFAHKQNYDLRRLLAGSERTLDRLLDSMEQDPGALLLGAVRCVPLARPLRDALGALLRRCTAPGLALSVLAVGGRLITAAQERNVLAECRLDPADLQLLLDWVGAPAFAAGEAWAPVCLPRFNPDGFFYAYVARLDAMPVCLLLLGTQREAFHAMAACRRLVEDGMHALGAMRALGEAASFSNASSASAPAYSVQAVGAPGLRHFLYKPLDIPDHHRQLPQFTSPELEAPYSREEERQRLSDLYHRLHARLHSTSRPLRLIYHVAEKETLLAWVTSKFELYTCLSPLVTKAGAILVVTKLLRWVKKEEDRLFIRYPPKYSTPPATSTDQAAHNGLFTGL
# UniProt Q709C8: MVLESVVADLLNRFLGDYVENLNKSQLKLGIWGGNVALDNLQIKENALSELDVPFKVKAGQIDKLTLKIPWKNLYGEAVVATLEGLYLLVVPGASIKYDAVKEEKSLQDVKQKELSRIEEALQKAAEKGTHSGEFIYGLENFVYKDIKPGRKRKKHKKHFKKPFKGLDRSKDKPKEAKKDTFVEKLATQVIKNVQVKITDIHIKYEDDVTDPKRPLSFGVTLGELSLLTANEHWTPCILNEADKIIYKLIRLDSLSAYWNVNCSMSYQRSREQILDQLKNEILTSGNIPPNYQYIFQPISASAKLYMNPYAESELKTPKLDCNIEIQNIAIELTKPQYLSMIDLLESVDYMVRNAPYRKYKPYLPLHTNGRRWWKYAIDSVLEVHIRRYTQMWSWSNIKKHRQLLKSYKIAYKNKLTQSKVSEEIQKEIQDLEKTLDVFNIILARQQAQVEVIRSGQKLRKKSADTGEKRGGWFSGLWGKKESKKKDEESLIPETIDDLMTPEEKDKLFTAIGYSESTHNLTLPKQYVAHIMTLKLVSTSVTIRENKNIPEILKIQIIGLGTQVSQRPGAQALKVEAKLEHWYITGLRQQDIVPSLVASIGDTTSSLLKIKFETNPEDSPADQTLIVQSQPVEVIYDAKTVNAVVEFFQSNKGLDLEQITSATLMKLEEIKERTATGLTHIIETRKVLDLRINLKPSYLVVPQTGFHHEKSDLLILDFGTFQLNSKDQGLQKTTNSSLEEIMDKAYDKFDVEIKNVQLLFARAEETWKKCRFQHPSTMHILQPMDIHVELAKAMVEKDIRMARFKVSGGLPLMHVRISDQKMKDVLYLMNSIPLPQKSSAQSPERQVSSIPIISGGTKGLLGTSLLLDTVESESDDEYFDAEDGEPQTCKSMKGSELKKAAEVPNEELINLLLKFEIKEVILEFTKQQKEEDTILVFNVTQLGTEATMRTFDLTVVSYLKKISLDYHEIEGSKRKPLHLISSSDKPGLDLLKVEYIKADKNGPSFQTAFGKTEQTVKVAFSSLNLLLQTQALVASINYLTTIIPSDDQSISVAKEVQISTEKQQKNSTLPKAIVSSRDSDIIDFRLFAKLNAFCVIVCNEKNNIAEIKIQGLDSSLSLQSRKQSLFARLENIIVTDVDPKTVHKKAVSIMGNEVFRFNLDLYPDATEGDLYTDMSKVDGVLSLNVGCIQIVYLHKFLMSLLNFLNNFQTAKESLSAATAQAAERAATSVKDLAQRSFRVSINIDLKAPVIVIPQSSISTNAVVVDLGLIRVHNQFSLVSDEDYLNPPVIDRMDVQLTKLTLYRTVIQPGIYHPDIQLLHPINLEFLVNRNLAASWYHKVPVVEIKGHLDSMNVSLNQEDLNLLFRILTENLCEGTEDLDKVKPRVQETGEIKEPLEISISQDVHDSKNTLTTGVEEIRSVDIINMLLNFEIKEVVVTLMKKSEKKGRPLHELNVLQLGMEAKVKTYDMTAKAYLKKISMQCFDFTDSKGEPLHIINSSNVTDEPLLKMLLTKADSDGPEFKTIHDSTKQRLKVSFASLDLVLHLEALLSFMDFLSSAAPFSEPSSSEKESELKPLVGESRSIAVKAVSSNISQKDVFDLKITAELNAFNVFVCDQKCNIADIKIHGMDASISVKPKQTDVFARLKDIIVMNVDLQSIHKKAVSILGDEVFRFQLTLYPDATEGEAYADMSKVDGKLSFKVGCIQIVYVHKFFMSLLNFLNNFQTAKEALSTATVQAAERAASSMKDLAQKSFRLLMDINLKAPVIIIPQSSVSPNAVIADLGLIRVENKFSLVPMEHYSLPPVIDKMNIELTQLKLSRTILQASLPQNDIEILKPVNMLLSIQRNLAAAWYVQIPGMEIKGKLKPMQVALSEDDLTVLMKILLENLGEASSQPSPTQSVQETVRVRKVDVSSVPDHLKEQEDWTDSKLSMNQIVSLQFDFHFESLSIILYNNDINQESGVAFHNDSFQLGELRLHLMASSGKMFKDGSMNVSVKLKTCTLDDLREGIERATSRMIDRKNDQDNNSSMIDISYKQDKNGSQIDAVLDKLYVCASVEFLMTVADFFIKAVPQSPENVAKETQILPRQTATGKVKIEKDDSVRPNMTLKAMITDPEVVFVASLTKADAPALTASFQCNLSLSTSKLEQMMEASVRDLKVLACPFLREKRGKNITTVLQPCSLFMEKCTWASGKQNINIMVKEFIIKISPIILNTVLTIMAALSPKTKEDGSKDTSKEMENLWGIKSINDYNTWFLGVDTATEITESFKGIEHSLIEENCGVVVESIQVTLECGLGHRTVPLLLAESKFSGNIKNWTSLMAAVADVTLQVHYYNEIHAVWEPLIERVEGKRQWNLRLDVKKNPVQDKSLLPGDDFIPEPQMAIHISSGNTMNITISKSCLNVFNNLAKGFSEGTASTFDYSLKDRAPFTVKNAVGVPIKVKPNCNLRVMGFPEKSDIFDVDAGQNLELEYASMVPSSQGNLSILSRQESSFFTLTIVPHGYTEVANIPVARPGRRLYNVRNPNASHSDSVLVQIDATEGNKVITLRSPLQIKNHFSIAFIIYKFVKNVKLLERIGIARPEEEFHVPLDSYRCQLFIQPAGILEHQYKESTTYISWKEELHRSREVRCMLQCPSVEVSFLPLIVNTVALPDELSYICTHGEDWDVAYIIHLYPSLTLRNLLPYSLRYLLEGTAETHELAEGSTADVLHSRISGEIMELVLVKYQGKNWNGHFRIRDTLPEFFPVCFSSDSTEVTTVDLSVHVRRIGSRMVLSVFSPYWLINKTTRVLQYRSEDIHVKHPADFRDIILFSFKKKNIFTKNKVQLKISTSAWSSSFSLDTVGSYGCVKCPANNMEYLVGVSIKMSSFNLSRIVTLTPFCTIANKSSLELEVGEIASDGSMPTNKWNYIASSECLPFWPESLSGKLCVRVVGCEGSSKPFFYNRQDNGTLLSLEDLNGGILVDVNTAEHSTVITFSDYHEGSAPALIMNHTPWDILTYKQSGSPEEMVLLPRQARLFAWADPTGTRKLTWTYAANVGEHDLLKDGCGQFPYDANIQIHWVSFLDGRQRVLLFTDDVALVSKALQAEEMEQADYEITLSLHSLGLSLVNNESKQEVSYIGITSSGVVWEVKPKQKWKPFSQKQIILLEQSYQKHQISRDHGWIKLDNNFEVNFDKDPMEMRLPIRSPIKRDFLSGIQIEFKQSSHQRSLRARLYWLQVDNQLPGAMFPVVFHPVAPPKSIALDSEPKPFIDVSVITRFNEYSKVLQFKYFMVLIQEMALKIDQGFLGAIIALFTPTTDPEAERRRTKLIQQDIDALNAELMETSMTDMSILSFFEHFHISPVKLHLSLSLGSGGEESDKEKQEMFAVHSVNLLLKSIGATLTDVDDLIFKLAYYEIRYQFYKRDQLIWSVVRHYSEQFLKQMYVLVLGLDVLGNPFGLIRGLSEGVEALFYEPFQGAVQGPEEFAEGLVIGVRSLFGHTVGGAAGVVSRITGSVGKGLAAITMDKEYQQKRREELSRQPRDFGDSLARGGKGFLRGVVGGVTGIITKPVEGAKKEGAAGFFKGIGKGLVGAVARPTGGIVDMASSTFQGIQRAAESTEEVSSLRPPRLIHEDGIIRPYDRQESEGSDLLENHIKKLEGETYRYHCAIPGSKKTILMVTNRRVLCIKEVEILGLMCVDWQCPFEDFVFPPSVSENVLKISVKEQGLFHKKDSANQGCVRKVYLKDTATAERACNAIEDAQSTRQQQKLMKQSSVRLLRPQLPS
# UniProt Q7Z401: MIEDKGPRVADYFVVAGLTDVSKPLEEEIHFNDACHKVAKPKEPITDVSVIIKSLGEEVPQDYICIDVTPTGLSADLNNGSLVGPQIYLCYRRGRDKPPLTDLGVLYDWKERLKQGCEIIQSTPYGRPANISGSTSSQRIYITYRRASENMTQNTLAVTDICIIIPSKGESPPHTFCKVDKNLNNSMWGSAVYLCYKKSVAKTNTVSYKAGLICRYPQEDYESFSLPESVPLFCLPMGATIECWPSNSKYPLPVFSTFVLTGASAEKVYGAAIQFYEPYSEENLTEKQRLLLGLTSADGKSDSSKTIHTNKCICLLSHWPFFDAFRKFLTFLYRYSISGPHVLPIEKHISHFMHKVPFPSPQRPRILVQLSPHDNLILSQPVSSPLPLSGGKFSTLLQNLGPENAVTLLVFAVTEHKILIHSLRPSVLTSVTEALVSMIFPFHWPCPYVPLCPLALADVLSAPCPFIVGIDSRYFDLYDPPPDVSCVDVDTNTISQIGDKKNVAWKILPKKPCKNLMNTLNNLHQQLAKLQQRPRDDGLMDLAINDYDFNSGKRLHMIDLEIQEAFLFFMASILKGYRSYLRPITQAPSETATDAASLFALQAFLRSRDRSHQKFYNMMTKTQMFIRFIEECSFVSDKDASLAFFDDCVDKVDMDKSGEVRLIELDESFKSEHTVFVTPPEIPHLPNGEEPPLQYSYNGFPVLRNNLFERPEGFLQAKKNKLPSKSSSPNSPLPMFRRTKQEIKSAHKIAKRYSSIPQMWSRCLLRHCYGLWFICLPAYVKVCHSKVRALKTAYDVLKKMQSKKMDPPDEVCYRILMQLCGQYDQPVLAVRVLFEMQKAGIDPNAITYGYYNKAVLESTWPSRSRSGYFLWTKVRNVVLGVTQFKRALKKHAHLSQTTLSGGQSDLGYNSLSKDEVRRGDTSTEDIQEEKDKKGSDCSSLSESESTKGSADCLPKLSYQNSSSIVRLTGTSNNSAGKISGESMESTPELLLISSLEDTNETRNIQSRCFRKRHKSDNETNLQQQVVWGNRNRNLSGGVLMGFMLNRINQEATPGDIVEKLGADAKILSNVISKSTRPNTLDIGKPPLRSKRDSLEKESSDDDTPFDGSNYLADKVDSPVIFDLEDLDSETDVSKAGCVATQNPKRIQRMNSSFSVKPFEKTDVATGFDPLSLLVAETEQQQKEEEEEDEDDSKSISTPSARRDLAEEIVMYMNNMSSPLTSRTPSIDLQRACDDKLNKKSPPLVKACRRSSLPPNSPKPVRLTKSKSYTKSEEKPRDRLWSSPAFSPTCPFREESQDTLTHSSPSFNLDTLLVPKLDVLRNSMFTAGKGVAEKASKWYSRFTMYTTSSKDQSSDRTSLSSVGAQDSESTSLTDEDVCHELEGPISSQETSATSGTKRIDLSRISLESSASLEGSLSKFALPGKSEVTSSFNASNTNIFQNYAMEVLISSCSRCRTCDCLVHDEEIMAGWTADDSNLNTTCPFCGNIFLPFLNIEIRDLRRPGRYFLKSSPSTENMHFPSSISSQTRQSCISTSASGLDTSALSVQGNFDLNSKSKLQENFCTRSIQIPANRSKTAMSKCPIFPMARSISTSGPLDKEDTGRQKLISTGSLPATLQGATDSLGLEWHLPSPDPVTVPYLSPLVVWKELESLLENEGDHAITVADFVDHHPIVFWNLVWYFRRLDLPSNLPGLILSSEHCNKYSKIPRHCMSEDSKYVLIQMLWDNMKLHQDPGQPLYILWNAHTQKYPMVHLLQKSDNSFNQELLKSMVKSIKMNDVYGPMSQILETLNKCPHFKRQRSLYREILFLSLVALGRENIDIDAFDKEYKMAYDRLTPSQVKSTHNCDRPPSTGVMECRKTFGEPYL
# Some of the results follow. Most values lie at the level of the controls, where differences are scatter.
# Compound: Cc1nc(Nc2ncc(C(=O)Nc3c(C)cccc3Cl)s2)cc(N2CCN(CCO)CC2)n1 [dasatinib]
# Test: log2 fold change of tryptic peptide abundance, ligand vs vehicle (limited proteolysis) (log2 ratio); higher = more trypsin-susceptible (destabilized)
# Conditions: ligand concentration: 5 uM; sample: K562 cleared lysate
row,Target,log2 fold change
1,"C11orf96 (peptide sequence: KSFLQSLECLR, peptide start residue: 394) (UniProt Q7Z7L8)",0.479
2,"UniProt Q6ZMV8 (peptide sequence: IHTGEKPYECEECGK, peptide start residue: 335)",-0.153
3,"KANSL1 (peptide sequence: LNLVSSSSDGTCVAARTRPVLSCK, peptide start residue: 577) (UniProt Q7Z3B3)",-0.431
4,"PHLDB1 (peptide sequence: NSITEISDNEDDLLEYHRR, peptide start residue: 577) (UniProt Q86UU1)",0.672
5,"TAF8 (peptide sequence: QSTNPADNYHLAR, peptide start residue: 21) (UniProt Q7Z7C8)",0.168
6,"RASGRP2 (peptide sequence: HSSLIDIDSVPTYK, peptide start residue: 115) (UniProt Q7LDG7)",-0.494
7,"UniProt Q6ZNX1 (peptide sequence: AIQDFPTRPLSR, peptide start residue: 26)",0.0962
8,"CCDC91 (peptide sequence: IKQDVESLMEKHNVLEK, peptide start residue: 155) (UniProt Q7Z6B0)",-0.462
9,"UniProt Q6YP21 (peptide sequence: LGWSIGPNHLIK, peptide start residue: 289)",0.308
10,"MEX3B (peptide sequence: AKTNTYIK, peptide start residue: 94) (UniProt Q6ZN04)",-0.113
11,"UniProt Q86T90 (peptide sequence: VTDASISMESLK, peptide start residue: 59)",0.467
12,"SND1 (peptide sequence: QINLSNIRAGNLAR, peptide start residue: 48) (UniProt Q7KZF4)",0.906
13,"EMSY (peptide sequence: CRESCSSPSTVGSSLTTR, peptide start residue: 1207) (UniProt Q7Z589)",0.882
14,"DHRS11 (peptide sequence: VLPLSVTHFYSATK, peptide start residue: 157) (UniProt Q6UWP2)",-0.211
15,"RAPH1 (peptide sequence: LPVSRHTLK, peptide start residue: 121) (UniProt Q70E73)",0.165
16,"GALNT5 (peptide sequence: VAACDPVKPYQK, peptide start residue: 920) (UniProt Q7Z7M9)",0.371
17,"UniProt Q86UF2 (peptide sequence: GPGNPLDHQITNER, peptide start residue: 1169)",-0.117
18,"APTX (peptide sequence: ESLGHWSQGLK, peptide start residue: 176) (UniProt Q7Z2E3)",-0.0666
19,"CROCCP2 (peptide sequence: MELELSVTK, peptide start residue: 21) (UniProt Q86T23)",-0.137
20,"MON1B (peptide sequence: RCTAPGLALSVLAVGGR, peptide start residue: 267) (UniProt Q7L1V2)",0.291
21,"UniProt Q7L0Y3 (peptide sequence: HDKVYVIGSFVDKSMQPGTSLAK, peptide start residue: 303)",0.186
22,"VPS13C (peptide sequence: DFGDSLAR, peptide start residue: 3512) (UniProt Q709C8)",0.176
23,"DENND4A (peptide sequence: ACDDKLNKK, peptide start residue: 1231) (UniProt Q7Z401)",1.06
24,"DCXR (peptide sequence: GTVQALHATGAR, peptide start residue: 22) (UniProt Q7Z4W1)",0.272
25,"CYP2U1 (peptide sequence: ELRQIEK, peptide start residue: 286) (UniProt Q7Z449)",0.125
26,"CEFIP (peptide sequence: DLTPSPSSASNR, peptide start residue: 840) (UniProt Q711Q0)",-0.313

# A few values from the results shown.
# log2 fold change with UniProt Q6ZNX1 (peptide sequence: AIQDFPTRPLSR, peptide start residue: 26) reads 0.0962
# log2 fold change with CROCCP2 (peptide sequence: MELELSVTK, peptide start residue: 21) (UniProt Q86T23) reads -0.137
